Test results: paper PMC12462935
These are yes or no findings as the source states them, for the method shown. In cells and extracts the contact can be indirect. Some binding calls cover weakened binding; strength is not graded here. For some assays here: Sequences can lack the tags named with a protein.

Sequences of proteins named here, by UniProt entry; tags and fusion partners are left off. A change or cut given only in a name is not applied to a line headed by its entry.
UniProt P19474: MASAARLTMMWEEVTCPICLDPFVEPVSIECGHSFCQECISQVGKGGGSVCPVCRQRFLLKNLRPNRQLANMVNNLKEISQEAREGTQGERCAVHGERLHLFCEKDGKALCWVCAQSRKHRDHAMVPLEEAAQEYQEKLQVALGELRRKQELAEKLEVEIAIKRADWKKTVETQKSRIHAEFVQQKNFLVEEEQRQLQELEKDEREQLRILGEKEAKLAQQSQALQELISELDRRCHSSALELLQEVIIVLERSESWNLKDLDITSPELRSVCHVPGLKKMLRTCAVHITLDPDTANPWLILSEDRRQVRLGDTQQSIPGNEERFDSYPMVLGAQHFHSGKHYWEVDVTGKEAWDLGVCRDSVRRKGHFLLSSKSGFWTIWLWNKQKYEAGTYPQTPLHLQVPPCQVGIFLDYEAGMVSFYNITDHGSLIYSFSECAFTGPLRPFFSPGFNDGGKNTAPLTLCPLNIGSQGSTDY
UniProt P15884: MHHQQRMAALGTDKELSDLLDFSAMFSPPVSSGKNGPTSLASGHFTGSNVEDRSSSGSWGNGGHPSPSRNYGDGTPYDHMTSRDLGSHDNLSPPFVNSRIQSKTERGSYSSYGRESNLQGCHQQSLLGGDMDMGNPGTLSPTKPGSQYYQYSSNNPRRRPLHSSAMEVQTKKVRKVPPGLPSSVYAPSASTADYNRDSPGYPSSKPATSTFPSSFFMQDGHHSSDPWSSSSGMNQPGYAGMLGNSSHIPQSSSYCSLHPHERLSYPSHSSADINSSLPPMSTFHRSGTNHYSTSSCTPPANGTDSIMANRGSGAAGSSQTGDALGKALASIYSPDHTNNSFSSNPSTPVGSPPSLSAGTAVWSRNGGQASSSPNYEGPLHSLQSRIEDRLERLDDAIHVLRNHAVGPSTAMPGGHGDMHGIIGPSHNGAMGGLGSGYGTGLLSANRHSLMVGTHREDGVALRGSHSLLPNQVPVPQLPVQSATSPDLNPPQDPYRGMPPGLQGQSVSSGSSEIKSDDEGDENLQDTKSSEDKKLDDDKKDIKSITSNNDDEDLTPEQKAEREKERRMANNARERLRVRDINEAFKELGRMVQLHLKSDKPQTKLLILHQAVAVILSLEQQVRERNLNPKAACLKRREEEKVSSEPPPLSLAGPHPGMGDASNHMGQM
UniProt P15923: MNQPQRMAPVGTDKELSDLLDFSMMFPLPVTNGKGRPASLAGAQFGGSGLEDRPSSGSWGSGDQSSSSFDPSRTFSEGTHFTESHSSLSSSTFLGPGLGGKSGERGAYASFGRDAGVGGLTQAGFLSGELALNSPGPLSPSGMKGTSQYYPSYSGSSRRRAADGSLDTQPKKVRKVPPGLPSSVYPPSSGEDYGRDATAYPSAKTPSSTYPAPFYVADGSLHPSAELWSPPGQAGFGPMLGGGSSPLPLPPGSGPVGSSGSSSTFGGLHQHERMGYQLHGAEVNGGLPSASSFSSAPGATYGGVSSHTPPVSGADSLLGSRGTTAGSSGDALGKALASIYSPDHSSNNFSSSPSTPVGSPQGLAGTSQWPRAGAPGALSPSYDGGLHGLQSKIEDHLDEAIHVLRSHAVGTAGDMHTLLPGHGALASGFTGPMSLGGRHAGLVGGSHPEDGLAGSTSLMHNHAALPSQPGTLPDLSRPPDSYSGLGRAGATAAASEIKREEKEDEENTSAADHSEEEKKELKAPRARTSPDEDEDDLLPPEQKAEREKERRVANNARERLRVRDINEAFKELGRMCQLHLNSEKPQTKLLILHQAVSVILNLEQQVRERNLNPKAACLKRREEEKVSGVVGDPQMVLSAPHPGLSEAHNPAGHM

Assays:
[1] = molecular target: T1, ID1 (endogenous) (human (endogenous in KYSE30 and KYSE450)) (UniProt P41134); experiment: co-IP; endogenous proteins in KYSE30 and KYSE450 cells; anti-TRIM21 or anti-ID1 antibody for TRIM21 with ID1; for TCF12 with ID1 cells treated with 5 µM Sorafenib or not; MG132 20 µM 6 h, protein A/G magnetic beads, immunoblot
T1 sequence: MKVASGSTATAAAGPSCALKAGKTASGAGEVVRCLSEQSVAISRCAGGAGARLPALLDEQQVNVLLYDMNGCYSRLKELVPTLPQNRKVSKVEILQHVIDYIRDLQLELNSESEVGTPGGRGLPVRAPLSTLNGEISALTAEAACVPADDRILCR

Myc-ID1 [2] = molecular target: T2, Myc-ID1 (UniProt P41134); experiment: co-IP; truncated constructs of ID1 (pEBG-GST) tested with TRIM21 and truncated constructs of TRIM21 (pcDNA3) tested with ID1; cells not given
T2 sequence: T1 sequence

Myc-ID1 [3] = molecular target: T2, Myc-ID1; experiment: co-IP; HEK293T cells co-transfected with tagged constructs (for ID1 with TCF3, TCF4 or TCF12: with TRIM21 or control vector); MG132 20 µM 6 h, lysates with primary antibodies and protein A/G magnetic beads overnight at 4 °C, immunoblot

TRIM21 (endogenous) (from UniProt P19474 1-475) (enzyme)
binding [1]: binds

TRIM21#3 (B30.2/SPRY domain) (from UniProt P19474 268-465) (domain or fragment)
binding (Myc-ID1 [2]): binds

Flag-TRIM21 (from UniProt P19474 1-475) (enzyme)
binding (Myc-ID1 [3]): binds

Flag-TCF4 (from UniProt P15884 1-667)
binding (Myc-ID1 [3]): binds

Flag-TCF3 (from UniProt P15923 1-654)
binding (Myc-ID1 [3]): binds
